Among the data in the supplement of paper PMC6411743 are NP40-soluble protein abundance values, retold here.

Amino acid sequences for entries named in this document (tags omitted). A change or cut given only in a name is not applied to a line headed by its entry.
UniProt O75616: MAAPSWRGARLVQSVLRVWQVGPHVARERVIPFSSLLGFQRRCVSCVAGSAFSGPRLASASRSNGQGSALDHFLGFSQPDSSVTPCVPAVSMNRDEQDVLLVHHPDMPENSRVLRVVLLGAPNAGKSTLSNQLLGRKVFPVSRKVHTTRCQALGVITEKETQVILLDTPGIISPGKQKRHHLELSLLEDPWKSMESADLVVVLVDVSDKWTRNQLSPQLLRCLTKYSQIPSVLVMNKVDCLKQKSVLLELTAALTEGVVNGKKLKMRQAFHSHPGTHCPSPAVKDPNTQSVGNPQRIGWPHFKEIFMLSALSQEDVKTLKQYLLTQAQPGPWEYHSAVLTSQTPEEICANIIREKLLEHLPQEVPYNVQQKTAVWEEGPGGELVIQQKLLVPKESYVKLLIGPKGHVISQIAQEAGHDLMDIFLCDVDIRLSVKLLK
UniProt O95104: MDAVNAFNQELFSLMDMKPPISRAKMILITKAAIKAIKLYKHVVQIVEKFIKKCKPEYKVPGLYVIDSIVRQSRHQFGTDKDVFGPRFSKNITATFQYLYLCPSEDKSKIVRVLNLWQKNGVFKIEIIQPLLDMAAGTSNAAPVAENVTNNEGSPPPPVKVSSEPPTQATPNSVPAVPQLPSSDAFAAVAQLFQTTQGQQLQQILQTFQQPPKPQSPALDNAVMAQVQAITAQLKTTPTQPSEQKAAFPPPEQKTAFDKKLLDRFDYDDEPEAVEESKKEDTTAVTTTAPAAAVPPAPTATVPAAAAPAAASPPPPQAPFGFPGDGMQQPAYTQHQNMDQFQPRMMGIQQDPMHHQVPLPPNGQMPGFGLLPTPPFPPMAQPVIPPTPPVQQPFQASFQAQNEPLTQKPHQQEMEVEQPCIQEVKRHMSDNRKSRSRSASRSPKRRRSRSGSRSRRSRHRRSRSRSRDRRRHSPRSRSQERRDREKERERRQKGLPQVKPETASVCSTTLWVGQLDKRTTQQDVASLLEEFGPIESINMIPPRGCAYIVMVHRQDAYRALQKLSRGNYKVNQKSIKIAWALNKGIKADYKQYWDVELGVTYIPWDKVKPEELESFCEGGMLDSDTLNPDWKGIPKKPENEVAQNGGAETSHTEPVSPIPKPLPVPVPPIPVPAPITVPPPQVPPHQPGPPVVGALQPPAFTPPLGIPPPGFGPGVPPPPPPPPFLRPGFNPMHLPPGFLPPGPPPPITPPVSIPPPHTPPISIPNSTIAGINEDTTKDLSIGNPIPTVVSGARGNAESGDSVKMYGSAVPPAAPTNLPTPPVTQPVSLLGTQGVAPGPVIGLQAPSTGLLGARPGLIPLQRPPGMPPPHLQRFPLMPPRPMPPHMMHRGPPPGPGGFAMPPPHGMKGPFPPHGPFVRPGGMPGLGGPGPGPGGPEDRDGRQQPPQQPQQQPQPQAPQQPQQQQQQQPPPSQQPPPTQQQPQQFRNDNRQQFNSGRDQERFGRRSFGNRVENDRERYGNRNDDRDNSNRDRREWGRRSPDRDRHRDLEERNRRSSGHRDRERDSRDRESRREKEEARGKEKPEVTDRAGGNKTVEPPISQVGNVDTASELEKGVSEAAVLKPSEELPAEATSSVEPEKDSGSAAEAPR
UniProt O60678: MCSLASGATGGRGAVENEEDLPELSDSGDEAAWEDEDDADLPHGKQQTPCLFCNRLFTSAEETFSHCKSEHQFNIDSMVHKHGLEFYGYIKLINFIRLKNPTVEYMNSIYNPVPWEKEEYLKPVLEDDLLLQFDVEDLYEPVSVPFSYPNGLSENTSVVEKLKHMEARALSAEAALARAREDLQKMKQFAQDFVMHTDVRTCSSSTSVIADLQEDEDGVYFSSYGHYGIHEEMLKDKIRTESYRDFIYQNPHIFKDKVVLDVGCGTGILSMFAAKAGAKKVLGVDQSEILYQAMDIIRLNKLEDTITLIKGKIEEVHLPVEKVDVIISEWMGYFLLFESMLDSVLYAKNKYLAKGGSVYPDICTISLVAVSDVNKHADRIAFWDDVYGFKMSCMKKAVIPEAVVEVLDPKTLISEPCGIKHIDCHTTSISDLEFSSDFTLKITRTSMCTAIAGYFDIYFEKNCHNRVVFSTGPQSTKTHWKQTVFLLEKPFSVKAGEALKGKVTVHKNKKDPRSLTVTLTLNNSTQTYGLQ
UniProt O75330: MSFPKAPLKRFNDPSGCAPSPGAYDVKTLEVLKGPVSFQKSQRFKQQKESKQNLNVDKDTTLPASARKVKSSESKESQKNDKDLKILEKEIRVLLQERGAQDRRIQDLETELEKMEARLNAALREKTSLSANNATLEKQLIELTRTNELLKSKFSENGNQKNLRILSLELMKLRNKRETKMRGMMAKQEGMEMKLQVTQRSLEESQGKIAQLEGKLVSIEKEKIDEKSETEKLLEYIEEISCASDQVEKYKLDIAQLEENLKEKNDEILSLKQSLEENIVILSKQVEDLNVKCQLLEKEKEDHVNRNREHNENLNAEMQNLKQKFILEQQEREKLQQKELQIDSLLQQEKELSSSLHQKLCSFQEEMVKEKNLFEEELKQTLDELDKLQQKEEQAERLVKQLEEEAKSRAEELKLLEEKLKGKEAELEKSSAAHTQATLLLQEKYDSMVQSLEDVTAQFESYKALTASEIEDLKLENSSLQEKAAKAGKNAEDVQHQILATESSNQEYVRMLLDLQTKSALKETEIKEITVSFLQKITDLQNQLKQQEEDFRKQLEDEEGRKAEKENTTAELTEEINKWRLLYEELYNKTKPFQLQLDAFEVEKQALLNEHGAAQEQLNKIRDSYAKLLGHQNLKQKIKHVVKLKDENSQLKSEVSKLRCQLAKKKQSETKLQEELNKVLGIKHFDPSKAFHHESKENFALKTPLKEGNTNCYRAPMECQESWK
UniProt O75326: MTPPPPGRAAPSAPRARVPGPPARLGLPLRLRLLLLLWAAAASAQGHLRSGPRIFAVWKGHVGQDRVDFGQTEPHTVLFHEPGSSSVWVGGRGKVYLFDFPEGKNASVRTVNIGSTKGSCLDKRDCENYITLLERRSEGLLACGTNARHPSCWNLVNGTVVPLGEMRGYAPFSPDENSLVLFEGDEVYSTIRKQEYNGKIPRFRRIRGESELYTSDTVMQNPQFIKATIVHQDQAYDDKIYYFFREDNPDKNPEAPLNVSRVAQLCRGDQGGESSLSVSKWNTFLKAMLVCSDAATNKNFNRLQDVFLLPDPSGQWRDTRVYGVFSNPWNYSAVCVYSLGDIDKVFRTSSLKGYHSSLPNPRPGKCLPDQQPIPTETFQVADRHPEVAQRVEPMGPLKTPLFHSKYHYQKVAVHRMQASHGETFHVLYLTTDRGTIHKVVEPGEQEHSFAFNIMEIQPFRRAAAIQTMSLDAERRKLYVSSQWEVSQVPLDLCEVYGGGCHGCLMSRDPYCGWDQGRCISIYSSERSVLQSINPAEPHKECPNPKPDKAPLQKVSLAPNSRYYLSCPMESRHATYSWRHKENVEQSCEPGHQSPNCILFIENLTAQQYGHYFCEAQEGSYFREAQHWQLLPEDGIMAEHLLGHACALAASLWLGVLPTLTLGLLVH
UniProt O60343: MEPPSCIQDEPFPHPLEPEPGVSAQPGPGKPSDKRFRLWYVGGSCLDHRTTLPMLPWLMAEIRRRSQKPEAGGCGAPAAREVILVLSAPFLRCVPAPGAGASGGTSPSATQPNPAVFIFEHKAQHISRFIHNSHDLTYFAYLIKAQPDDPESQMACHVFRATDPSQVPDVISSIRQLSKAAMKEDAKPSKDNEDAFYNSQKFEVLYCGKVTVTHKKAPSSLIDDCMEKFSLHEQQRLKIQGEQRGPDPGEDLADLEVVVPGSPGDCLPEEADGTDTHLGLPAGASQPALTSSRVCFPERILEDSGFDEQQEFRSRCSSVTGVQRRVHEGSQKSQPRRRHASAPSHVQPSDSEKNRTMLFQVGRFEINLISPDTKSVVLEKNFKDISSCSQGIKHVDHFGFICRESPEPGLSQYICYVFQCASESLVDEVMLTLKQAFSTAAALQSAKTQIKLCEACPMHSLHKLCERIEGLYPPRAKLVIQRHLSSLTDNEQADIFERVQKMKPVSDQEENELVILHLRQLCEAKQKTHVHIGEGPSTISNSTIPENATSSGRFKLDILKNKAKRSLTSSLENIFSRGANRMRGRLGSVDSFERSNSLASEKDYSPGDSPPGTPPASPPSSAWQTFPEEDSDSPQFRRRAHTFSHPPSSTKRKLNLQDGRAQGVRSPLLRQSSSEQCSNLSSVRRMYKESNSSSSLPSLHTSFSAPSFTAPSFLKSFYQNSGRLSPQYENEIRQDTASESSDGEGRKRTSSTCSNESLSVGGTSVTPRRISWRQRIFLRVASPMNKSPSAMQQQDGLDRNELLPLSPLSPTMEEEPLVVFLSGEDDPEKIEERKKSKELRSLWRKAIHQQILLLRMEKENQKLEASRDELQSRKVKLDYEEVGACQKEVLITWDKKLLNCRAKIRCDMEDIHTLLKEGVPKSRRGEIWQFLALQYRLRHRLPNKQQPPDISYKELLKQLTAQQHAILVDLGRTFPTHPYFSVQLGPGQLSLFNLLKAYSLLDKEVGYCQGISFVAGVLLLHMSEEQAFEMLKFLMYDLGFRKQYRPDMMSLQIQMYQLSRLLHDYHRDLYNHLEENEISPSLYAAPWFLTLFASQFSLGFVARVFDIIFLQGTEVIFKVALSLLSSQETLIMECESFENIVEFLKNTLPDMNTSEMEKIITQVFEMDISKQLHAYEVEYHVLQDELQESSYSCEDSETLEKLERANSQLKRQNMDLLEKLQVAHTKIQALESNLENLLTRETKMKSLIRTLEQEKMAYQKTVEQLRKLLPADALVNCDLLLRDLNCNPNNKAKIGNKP
UniProt O95394: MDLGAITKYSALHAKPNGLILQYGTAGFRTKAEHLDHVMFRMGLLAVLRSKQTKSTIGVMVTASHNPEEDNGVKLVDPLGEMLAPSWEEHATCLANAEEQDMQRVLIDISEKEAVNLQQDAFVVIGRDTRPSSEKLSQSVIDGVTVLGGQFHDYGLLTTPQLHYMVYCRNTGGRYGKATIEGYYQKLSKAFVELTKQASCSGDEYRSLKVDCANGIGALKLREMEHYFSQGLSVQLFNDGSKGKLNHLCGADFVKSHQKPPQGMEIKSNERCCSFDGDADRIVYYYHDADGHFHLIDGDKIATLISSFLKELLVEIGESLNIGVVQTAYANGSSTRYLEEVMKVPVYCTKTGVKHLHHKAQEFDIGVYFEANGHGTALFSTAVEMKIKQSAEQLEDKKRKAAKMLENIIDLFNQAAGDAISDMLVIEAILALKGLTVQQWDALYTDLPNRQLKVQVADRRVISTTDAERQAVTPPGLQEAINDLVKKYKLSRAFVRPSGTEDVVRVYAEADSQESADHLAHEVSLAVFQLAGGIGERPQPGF
UniProt O94888: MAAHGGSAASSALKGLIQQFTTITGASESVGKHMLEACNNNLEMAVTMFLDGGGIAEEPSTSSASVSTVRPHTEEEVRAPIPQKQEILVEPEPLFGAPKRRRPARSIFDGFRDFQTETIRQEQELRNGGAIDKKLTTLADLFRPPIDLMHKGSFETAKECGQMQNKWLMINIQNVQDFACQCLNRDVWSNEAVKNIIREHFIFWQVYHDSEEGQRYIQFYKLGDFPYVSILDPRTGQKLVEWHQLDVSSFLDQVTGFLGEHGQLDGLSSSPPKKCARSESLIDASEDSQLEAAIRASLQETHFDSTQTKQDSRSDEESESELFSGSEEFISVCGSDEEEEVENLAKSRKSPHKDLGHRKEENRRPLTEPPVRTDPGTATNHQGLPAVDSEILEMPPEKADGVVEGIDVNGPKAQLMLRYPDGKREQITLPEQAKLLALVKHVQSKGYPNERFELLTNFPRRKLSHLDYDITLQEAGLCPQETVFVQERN
UniProt O75381, whole entry: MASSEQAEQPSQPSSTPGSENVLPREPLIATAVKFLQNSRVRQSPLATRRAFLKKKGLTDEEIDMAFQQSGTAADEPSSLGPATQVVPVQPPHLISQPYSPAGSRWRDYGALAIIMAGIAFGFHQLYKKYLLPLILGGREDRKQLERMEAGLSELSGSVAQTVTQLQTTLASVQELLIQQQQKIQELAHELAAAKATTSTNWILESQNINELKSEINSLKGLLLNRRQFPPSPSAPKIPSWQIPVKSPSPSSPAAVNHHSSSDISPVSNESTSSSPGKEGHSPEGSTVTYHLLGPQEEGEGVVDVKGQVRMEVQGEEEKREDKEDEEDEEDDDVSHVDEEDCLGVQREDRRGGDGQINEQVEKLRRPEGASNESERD
UniProt O75323: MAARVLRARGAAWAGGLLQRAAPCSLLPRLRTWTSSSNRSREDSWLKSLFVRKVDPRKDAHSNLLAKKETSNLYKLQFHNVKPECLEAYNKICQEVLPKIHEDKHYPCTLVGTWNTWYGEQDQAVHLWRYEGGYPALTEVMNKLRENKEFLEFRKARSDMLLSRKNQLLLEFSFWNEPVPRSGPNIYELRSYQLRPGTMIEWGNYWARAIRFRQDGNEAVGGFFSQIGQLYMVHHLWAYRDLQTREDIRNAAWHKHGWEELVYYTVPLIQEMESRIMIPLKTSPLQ

± gives the standard deviation of the averaged measurements. This is a selection; strong and weak results do not stand in their true shares. Most entries show no effect beyond the scatter of the controls.

Compound in the experiment: Nc1ncnc2c1ncn2[C@@H]1O[C@H](COP(=O)(O)OP(=O)(O)NP(=O)(O)O)[C@@H](O)[C@H]1O [adenylyl imidodiphosphate]
The experiment can be described thus: NP40-soluble protein abundance relative to vehicle (solubility fold change) (ratio); higher = more soluble protein in presence of AMP-PNP. The gist of the method:
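Values are fold changes against the detergent-processed vehicle, based on vsn-normalised intensities. Jurkat crude lysate was treated at eight concentrations from 0.1 to 10 mM (10 min at room temperature, then 3 min at 37 °C), solubilised with 0.8% NP40 and benzonase, ultracentrifuged and analysed by TMT-labelled LC-MS/MS over three independent experiments.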

As to ERAL1 (UniProt O75616), the NP40-soluble protein abundance worked out at 0.792 ± 0.037 (concentration: 0.1mM) and 0.802 ± 0.034 (concentration: 0.5mM).

Regarding UniProt O95104 and related entries, the NP40-soluble protein abundance (concentration: 0.1mM) stood at 1.06 ± 0.05 and the NP40-soluble protein abundance (concentration: 0.5mM) came to 1.04 ± 0.045.

Turning to PRMT3 (UniProt O60678), the NP40-soluble protein abundance by setting is: (concentration: 0.1mM) 1.02 ± 0.024; (concentration: 0.5mM) 0.951 ± 0.049.

As to ERLIN1 (UniProt O75477), the NP40-soluble protein abundance runs as follows: (concentration: 0.1mM) 1.01 ± 0.061; (concentration: 0.5mM) 1.02 ± 0.068.

Regarding UniProt O75330 and related entries, the NP40-soluble protein abundance was determined as 0.979 ± 0.019 (concentration: 0.1mM) and 0.983 ± 0.055 (concentration: 0.5mM).

For UniProt O75326 and related entries, the NP40-soluble protein abundance (concentration: 0.1mM) was 1.004 ± 0.0063 and the NP40-soluble protein abundance (concentration: 0.5mM) stood at 1.007 ± 0.0033.

Consider UniProt O60343 and related entries, for which the NP40-soluble protein abundance by setting is: (concentration: 0.1mM) 1.01 ± 0.059; (concentration: 0.5mM) 1 ± 0.0078.

MAST3 (UniProt O60307): the NP40-soluble protein abundance worked out at 1.0102 ± 0.00014 (concentration: 0.1mM) and 1.004 ± 0.0011 (concentration: 0.5mM).

Consider UniProt O75312, for which the NP40-soluble protein abundance is 0.982 ± 0.01 (concentration: 0.1mM) and 0.973 ± 0.035 (concentration: 0.5mM).

With RAD21 (UniProt O60216), the NP40-soluble protein abundance reads like this: (concentration: 0.1mM) 0.966 ± 0.032; (concentration: 0.5mM) 0.9789 ± 0.0037.

As to RNGTT (UniProt O60942), the NP40-soluble protein abundance reads like this: (concentration: 0.1mM) 0.987 ± 0.015; (concentration: 0.5mM) 0.975 ± 0.035.

On to UniProt O95394 and related entries, for which the NP40-soluble protein abundance is 1.01 ± 0.046 (concentration: 0.1mM) and 0.984 ± 0.044 (concentration: 0.5mM).

Consider TMEM63A (UniProt O94886), for which the NP40-soluble protein abundance runs as follows: (concentration: 0.1mM) 1.01 ± 0.018; (concentration: 0.5mM) 0.964 ± 0.043.

For UBXN7 (UniProt O94888), the NP40-soluble protein abundance (concentration: 0.1mM) worked out at 0.9941 ± 0.0063 and the NP40-soluble protein abundance (concentration: 0.5mM) came out at 1.02 ± 0.044.

Regarding GLRX3 (UniProt O76003), the NP40-soluble protein abundance (concentration: 0.1mM) is 1.02 ± 0.024 and the NP40-soluble protein abundance (concentration: 0.5mM) turned out to be 1.03 ± 0.018.

As for SH3BP5 (UniProt O60239), the NP40-soluble protein abundance came out at 1.08 ± 0.16 (concentration: 0.1mM) and 0.9934 ± 0.0081 (concentration: 0.5mM).

As for TACC1 (UniProt O75410), the NP40-soluble protein abundance reads like this: (concentration: 0.1mM) 0.991 ± 0.018; (concentration: 0.5mM) 0.981 ± 0.041.

Consider UniProt O75381 and related entries, for which the NP40-soluble protein abundance is, setting by setting: (concentration: 0.1mM) 0.996 ± 0.036; (concentration: 0.5mM) 1.04 ± 0.064.

As to ZC3H11A (UniProt O75152), the NP40-soluble protein abundance by setting is: (concentration: 0.1mM) 0.895 ± 0.046; (concentration: 0.5mM) 0.874 ± 0.14.

With UniProt O95298 and related entries, the NP40-soluble protein abundance was 1.04 ± 0.11 (concentration: 0.1mM) and 1.01 ± 0.072 (concentration: 0.5mM).

Consider UniProt O94906 and related entries, for which the NP40-soluble protein abundance reads like this: (concentration: 0.1mM) 1.06 ± 0.038; (concentration: 0.5mM) 1.01 ± 0.061.

As to UniProt O75323, the NP40-soluble protein abundance is 1.01 ± 0.042 (concentration: 0.1mM) and 1.02 ± 0.043 (concentration: 0.5mM).
